Assay results reported in the supplement of paper PMC10735217.
Structures can show the parent of a compound that is named as a salt. Some of the results follow. Repeats in this data set agree poorly, so a single value says little.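 Human kidney-derived cells stably carry a construct in which eight TEAD-binding elements drive luciferase, measured by luminescence in a drug-repurposing library screen. A hit is any compound whose signal exceeds the plate mean by more than five robust Z scores.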

Test system: HEK293A TEAD-LUC reporter
Experiment: TEAD-luciferase reporter activity (YAP activation), robust Z score vs plate; higher = stronger YAP/TEAD activation
Settings: 24 h

Row | SMILES | TEAD-luciferase reporter activity (compound concentration: 200 nM) | TEAD-luciferase reporter activity (compound concentration: 2 uM) | TEAD-luciferase reporter activity (compound concentration: 10 uM)
1 | O=C(NC1CC1)c1cn(-c2cccc(-c3ccc([C@@H]4C[C@H]4C(=O)O)c(F)c3)c2)c2ncccc2c1=O | inactive: -0.26 | inactive: 0.539 | inactive: -0.424
2 | CNC(=N)NCCC[C@H](N)C(=O)O [tilarginine acetate] | – | inactive: -1.51 | –
3 | CNC(=N)NCCC[C@H](N)C(=O)O [L-Ornithine, N5-[imino(methylamino)methyl]-] | inactive: -0.458 | – | inactive: 0.612
4 | Nc1nc(N)c2c(n1)NCC(CO)N2 (stereo unspecified) | inactive: -1.58 | inactive: -1.47 | inactive: -0.988
5 | c1ccc2c(c1)CC[C@@H](CNCCCNC1=NCCCN1)O2 | inactive: -0.31 | inactive: -1.12 | inactive: 0.433
6 | O=C1c2cccc3cc([N+](=O)[O-])cc(c23)C(=O)N1NCCO | inactive: -0.0338 | inactive: 0.73 | inactive: -2.04
7 | NS(=O)(=O)c1cc(C(=O)O)c(NCc2ccco2)cc1Cl | inactive: 0.0703 | – | inactive: 0.263
8 | NS(=O)(=O)c1cc(C(=O)O)c(NCc2ccco2)cc1Cl [furosemide AcuForm] | – | inactive: 2.98 | –
9 | CCCCC1=Cc2cc3c(cc2C1N1CCN(C)CC1)OCO3 (stereo unspecified) | inactive: 0.308 | inactive: 1.07 | inactive: 1.21
10 | CCNC(=O)Nc1ccc(-c2nc3c(c(N4CCOC[C@@H]4C)n2)CCN(C2COC2)C3)cc1 | inactive: -2.48 | inactive: -1.58 | inactive: -0.44
11 | O=P(O)(O)COc1ccc(CCNC[C@H](O)COc2ccc(O)cc2)cc1 | inactive: -0.992 | inactive: -0.186 | inactive: 0.178
12 | O=C(Nc1ccc(-c2ccnc(Nc3ccc(N4CCOCC4)cc3)n2)cc1)[C@@H]1CCCN1 | inactive: 0.0511 | inactive: 0.396 | active: 6.38
13 | Cc1[nH]c2ccccc2c1C[C@@H](NC(=O)[C@@H](Cc1c(C)[nH]c2ccccc12)NC(=O)C(C)(C)N)C(N)=O | inactive: -0.612 | inactive: -0.667 | inactive: -1.61
14 | CCOC(=O)Nc1nc(N)c2c(n1)NCCC(c1ccccc1)=N2 | inactive: -0.231 | inactive: -2.42 | inactive: -0.913
15 | COc1ccc2cc3[n+](cc2c1OC)CCc1cc2c(cc1-3)OCO2 [Berberine chloride] | inactive: -1.59 | inactive: -1.85 | inactive: 1.67
16 | CCOC(=O)C1=C(C)NC(C)=C(C(=O)OCC)C1c1cccnc1SC | inactive: -1.03 | inactive: -1.45 | inactive: -0.502
17 | COc1ccc(C(=O)Nc2cccc(O)c2NC(=O)c2ccc(N3CCCN(C)CC3)cc2)cc1 [Darexaban maleate] | inactive: -1.83 | inactive: -0.83 | inactive: 0.539
18 | CO/N=C1/CC(CO)N(C(=O)c2ccc(-c3ccccc3C)cc2)C1 (stereo unspecified) | inactive: 1.42 | inactive: -0.67 | inactive: 3.05
19 | Cc1cccc(CN2CCN(C)C[C@@H](NC(=O)c3n[nH]c4ccccc34)C2)c1 | inactive: -1.59 | inactive: -0.647 | inactive: 1.93

Row | SMILES | TEAD-luciferase reporter activity (compound concentration: 200 nM) | TEAD-luciferase reporter activity (compound concentration: 2 uM) | TEAD-luciferase reporter activity (compound concentration: 10 uM)
20 | CSCC[C@H](NC(=O)c1cc(NC[C@@H]2C[C@H](SC(=O)c3cccnc3)CN2)ccc1CCc1ccc(F)cc1)C(=O)OC(C)C | inactive: -1.56 | inactive: 1.5 | inactive: -0.0535
21 | Oc1ccc(Nc2ccnc3cc(Cl)ccc23)cc1CN1CCCC1 | inactive: -0.63 | inactive: -1.01 | inactive: 2.51
22 | Cc1c(C)c2c(c(C)c1O)C[C@@H](CC(=O)O)O2 | inactive: 0.0343 | inactive: -1.03 | inactive: 0.77
23 | O=C(O)CCC(=O)c1ccc2oc3ccccc3c2c1 [furobufen] | inactive: -0.116 | inactive: 0.763 | inactive: 3.1
24 | CSc1ccccc1OCC(O)CNC(C)C (stereo unspecified) [tiprenolol] | inactive: -1.24 | inactive: -1.59 | inactive: 0.741
25 | Cn1cnc2c(NC3CCCC3)ncnc21 | inactive: -1.58 | – | inactive: 0.0465
26 | O=C(O)c1ccc(OCCn2ccnc2)cc1 [Dazoxiben hydrochloride] | inactive: 0.3 | inactive: -0.783 | inactive: -1.1
27 | CCN1CCN(c2cc(-c3ccc(F)cc3)c3c(n2)CCCCCC3)CC1 [blonanserin] | inactive: -0.362 | inactive: -1.13 | inactive: -0.173
28 | CCOC(=O)C(c1ccccc1)N1CCCCC1 (stereo unspecified) | inactive: 0.864 | inactive: 1.51 | inactive: 2.89
29 | O=C(O)CN1C(=O)[C@@H](NC(=O)C2(CC(CCc3ccccc3)C(=O)O)CCCC2)CCc2ccccc21 (stereo partly specified) | inactive: -1.26 | inactive: -1.26 | inactive: 4.82
30 | CNC(=O)c1cccc2cc(Oc3ccnc4cc(OCC5(N)CC5)c(OC)cc34)ccc12 [lucitanib] | inactive: -1.86 | inactive: -0.996 | inactive: 0.204
31 | C1Cc2[nH]nc(-c3nnn[nH]3)c2C1 | inactive: -0.759 | inactive: 0.921 | inactive: 1.33
32 | COc1ccc(C[C@@H](C(=O)N[C@@H](C)c2cccc3ccccc23)N(C)S(=O)(=O)Cc2ccccc2)cc1 | inactive: 3.27 | inactive: -0.803 | inactive: 0.197
33 | CCC(=O)O[C@]1(C(=O)S[C@H]2CCOC2=O)[C@H](C)C[C@H]2[C@@H]3C[C@H](F)C4=CC(=O)C=C[C@]4(C)[C@@]3(F)[C@@H](O)C[C@@]21C [Zoticasone propionate] | inactive: -1.45 | inactive: -0.323 | inactive: 1.45
34 | Cc1cc2c(F)c(Oc3ncnn4cc(OC[C@@H](C)OC(=O)[C@H](C)N)c(C)c34)ccc2[nH]1 [brivanib alaninate] | inactive: 2.55 | inactive: -1.87 | inactive: -1.89
35 | O=C(O)CC/C=C\C[C@@H]1CO[C@H](c2ccccc2Cl)O[C@@H]1c1ccccc1O | inactive: -1.19 | inactive: -1.25 | inactive: -1.08
36 | CN1C[C@H](O)[C@@H](O)[C@H](O)[C@H]1CO | inactive: -1.26 | inactive: -0.942 | inactive: 0.351
37 | O=c1c2c[nH]c3ccccc3c-2nn1-c1ccc(Cl)cc1 | inactive: 1.81 | inactive: 0.35 | inactive: 2.61
38 | COCCOC(=O)C1=C(C)NC(C)=C(C(=O)OC/C=C/c2ccccc2)C1c1cccc([N+](=O)[O-])c1 (stereo unspecified) [cilnidipine] | inactive: -0.578 | inactive: -2.29 | inactive: 0.0748

Row | SMILES | TEAD-luciferase reporter activity (compound concentration: 200 nM) | TEAD-luciferase reporter activity (compound concentration: 2 uM) | TEAD-luciferase reporter activity (compound concentration: 10 uM)
39 | COCCOC(=O)C1=C(C)NC(C)=C(C(=O)OC/C=C/c2ccccc2)C1c1cccc([N+](=O)[O-])c1 (stereo unspecified) [Cilnidipine] | – | inactive: -0.579 | –
40 | O[C@H]1CC[C@H](Nc2nc(-c3ccccc3)nc3[nH]ccc23)CC1 [Derenofylline] | inactive: -2.55 | inactive: -1.64 | inactive: 2.98
41 | O=C(O)CCC/C=C\C[C@@H]1[C@@H](/C=C/[C@@H](O)COc2cccc(Cl)c2)[C@H](O)C[C@@H]1O | inactive: -0.766 | inactive: 1.82 | inactive: 0.619
42 | Cc1cc(SCc2sc(-c3ccc(C(F)(F)F)cc3F)nc2C)ccc1OC(C)(C)C(=O)O [Sodelglitazar] | – | inactive: 2.7 | –
43 | Cc1cc(SCc2sc(-c3ccc(C(F)(F)F)cc3F)nc2C)ccc1OC(C)(C)C(=O)O | inactive: 0.61 | – | active: 5.78
44 | CS(=O)(=O)Oc1ccc(OCCc2ccc(CC(SCCc3ccc(O)cc3)C(N)=O)cc2)cc1 (stereo unspecified) | inactive: -1.02 | inactive: -1.17 | inactive: 0.954
45 | CN(CO)c1nc(N(C)CO)nc(N(C)CO)n1 [Trimethyl TMM] | inactive: -0.903 | inactive: 0.322 | inactive: 2.01
46 | O=C(O)CCC(=O)N1CCN(C2CCNCC2)C(=O)C1 | inactive: -1.54 | – | inactive: 2.42
47 | O[C@]12CC[C@](c3nnc4c(Oc5ccccc5Cl)cccn43)(CC1)C2 | inactive: -0.211 | inactive: 4.23 | inactive: 0.0494
48 | Cc1ccc2c(c1)c1c(n2CCc2ccccc2)CCN(C)C1 | inactive: -0.0258 | inactive: -0.201 | inactive: 2.47
49 | O=C(NC1CCCCC1)N1C2CCC1CN(C1CCNCC1)C2 | inactive: 4.51 | – | inactive: -0.273
50 | Cc1ccc(Nc2nnc(Cc3ccncc3)c3ccccc23)cc1Br | inactive: -2.18 | inactive: -1.63 | inactive: -1.07
51 | CC(C)(C)OC(=O)N[C@H]1CCCCC/C=C/[C@@H]2C[C@@]2(C(=O)NS(=O)(=O)C2CC2)NC(=O)[C@@H]2C[C@@H](OC(=O)N3Cc4cccc(F)c4C3)CN2C1=O [Danoprevir] | inactive: -0.857 | inactive: -0.788 | inactive: 0.482
52 | CCOC(=O)C1=C(Cn2ccnc2)NC(C)=C(C(=O)OC)C1c1cccc([N+](=O)[O-])c1 (stereo unspecified) | inactive: -0.274 | inactive: -0.657 | inactive: -0.616
53 | CC(=O)c1ccc2c(c1)C(=O)C1(CC1)O2 [spizofurone] | inactive: -0.0721 | inactive: -0.561 | inactive: 0.28
54 | COc1ccc(C(O)CC(C)CC(C)(C)C)c(Cl)c1 (stereo unspecified) | inactive: 4.44 | inactive: -1.57 | inactive: 0.62
55 | CC[C@H](C)[C@@H]1NC(=O)[C@H](Cc2ccc(O)cc2)NC(=O)[C@@H](N)CSSC[C@@H](C(=O)N2CCC[C@H]2C(=O)N[C@@H](CC(C)C)C(=O)NCC(N)=O)NC(=O)[C@H](CC(N)=O)NC(=O)[C@H](CCC(N)=O)NC1=O [oxytocin, inhaled, GlaxoSmithKline] | inactive: -0.296 | – | inactive: -1.21
56 | CC[C@H](C)[C@@H]1NC(=O)[C@H](Cc2ccc(O)cc2)NC(=O)[C@@H](N)CSSC[C@@H](C(=O)N2CCC[C@H]2C(=O)N[C@@H](CC(C)C)C(=O)NCC(N)=O)NC(=O)[C@H](CC(N)=O)NC(=O)[C@H](CCC(N)=O)NC1=O [oxytocin, inhaled] | – | inactive: -0.505 | –

Laid out differently: entries from further up

| Row | SMILES | TEAD-luciferase reporter activity (compound concentration: 200 nM) | TEAD-luciferase reporter activity (compound concentration: 2 uM) | TEAD-luciferase reporter activity (compound concentration: 10 uM) |
| --- | --- | --- | --- | --- |
| 3 | CNC(=N)NCCC[C@H](N)C(=O)O [L-Ornithine, N5-[imino(methylamino)methyl]-] | inactive: -0.458 | – | inactive: 0.612 |
| 7 | NS(=O)(=O)c1cc(C(=O)O)c(NCc2ccco2)cc1Cl | inactive: 0.0703 | – | inactive: 0.263 |
| 8 | NS(=O)(=O)c1cc(C(=O)O)c(NCc2ccco2)cc1Cl [furosemide AcuForm] | – | inactive: 2.98 | – |
| 13 | Cc1[nH]c2ccccc2c1C[C@@H](NC(=O)[C@@H](Cc1c(C)[nH]c2ccccc12)NC(=O)C(C)(C)N)C(N)=O | inactive: -0.612 | inactive: -0.667 | inactive: -1.61 |
| 14 | CCOC(=O)Nc1nc(N)c2c(n1)NCCC(c1ccccc1)=N2 | inactive: -0.231 | inactive: -2.42 | inactive: -0.913 |
| 16 | CCOC(=O)C1=C(C)NC(C)=C(C(=O)OCC)C1c1cccnc1SC | inactive: -1.03 | inactive: -1.45 | inactive: -0.502 |
| 19 | Cc1cccc(CN2CCN(C)C[C@@H](NC(=O)c3n[nH]c4ccccc34)C2)c1 | inactive: -1.59 | inactive: -0.647 | inactive: 1.93 |
| 30 | CNC(=O)c1cccc2cc(Oc3ccnc4cc(OCC5(N)CC5)c(OC)cc34)ccc12 [lucitanib] | inactive: -1.86 | inactive: -0.996 | inactive: 0.204 |
| 31 | C1Cc2[nH]nc(-c3nnn[nH]3)c2C1 | inactive: -0.759 | inactive: 0.921 | inactive: 1.33 |
| 32 | COc1ccc(C[C@@H](C(=O)N[C@@H](C)c2cccc3ccccc23)N(C)S(=O)(=O)Cc2ccccc2)cc1 | inactive: 3.27 | inactive: -0.803 | inactive: 0.197 |
| 33 | CCC(=O)O[C@]1(C(=O)S[C@H]2CCOC2=O)[C@H](C)C[C@H]2[C@@H]3C[C@H](F)C4=CC(=O)C=C[C@]4(C)[C@@]3(F)[C@@H](O)C[C@@]21C [Zoticasone propionate] | inactive: -1.45 | inactive: -0.323 | inactive: 1.45 |
| 40 | O[C@H]1CC[C@H](Nc2nc(-c3ccccc3)nc3[nH]ccc23)CC1 [Derenofylline] | inactive: -2.55 | inactive: -1.64 | inactive: 2.98 |
| 42 | Cc1cc(SCc2sc(-c3ccc(C(F)(F)F)cc3F)nc2C)ccc1OC(C)(C)C(=O)O [Sodelglitazar] | – | inactive: 2.7 | – |
| 43 | Cc1cc(SCc2sc(-c3ccc(C(F)(F)F)cc3F)nc2C)ccc1OC(C)(C)C(=O)O | inactive: 0.61 | – | active: 5.78 |
| 50 | Cc1ccc(Nc2nnc(Cc3ccncc3)c3ccccc23)cc1Br | inactive: -2.18 | inactive: -1.63 | inactive: -1.07 |
